Amino acid sequences for entries named in this document (tags omitted).
UniProt P02786, whole entry: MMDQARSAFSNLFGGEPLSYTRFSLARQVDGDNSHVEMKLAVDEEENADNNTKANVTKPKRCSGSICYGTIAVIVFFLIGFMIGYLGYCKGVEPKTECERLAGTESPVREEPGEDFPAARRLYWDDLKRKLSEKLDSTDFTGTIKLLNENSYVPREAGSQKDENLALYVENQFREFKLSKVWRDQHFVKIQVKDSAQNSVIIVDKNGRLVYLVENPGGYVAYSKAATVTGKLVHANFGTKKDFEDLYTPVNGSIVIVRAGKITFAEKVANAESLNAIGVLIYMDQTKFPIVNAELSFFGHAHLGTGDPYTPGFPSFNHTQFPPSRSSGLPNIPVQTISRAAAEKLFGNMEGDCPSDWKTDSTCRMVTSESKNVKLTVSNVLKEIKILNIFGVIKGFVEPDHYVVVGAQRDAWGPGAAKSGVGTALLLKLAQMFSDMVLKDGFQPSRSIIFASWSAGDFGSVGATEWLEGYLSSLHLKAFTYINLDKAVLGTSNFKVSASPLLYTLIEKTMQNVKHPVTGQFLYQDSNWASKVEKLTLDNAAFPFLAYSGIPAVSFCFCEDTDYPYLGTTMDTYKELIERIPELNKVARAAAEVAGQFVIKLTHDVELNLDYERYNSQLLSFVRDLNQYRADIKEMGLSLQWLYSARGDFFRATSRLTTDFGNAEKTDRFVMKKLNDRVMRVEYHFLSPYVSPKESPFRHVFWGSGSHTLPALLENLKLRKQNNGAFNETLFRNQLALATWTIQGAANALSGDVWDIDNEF

According to patent EP4810522A1 (WeCareLife Biotech Co., Ltd., dated 2026):

Target: T1, Transferrin receptor 1 (UniProt ID: P02786) (UniProt P02786 1-760)
T1 construct: whole, on cells; Endogenous expression, not transfected cells; also called protein Transferrin receptor 1
Assay: confocal microscopy and flow cytometry of MCF7 cells (high Transferrin receptor 1) after 2 h with fluorescent adiposomes carrying TRTA-P33, against adiposomes without the peptide

B1: adiposome targeting peptide TRTA-P33 (Transferrin receptor 1-targeting adiposome peptide 33) (peptide)
peptide: MGIFSRFADIVNANINALLEKTHRPPMWSPVWP
notes: Chemically synthesized; No linker; In the assay it was adsorbed non-covalently to the surface of fluorescently labeled adiposomes (TRTA adiposomes); also called PspA-H1-Trf-B
B1: binds.
